Source: PMC4734655
These are yes or no findings as the source states them, for the method shown. For some assays here: Binding calls can cover weak binding; strength is not graded here. Sequences can lack the tags named with a protein.

Assays:
[1] = molecular target: T1, recombinant M. tuberculosis rAtsG (His-tagged, from pHis-atsG) (Mycobacterium tuberculosis H37Rv) (UniProt Q6MX51); test: far-Western, overlay or dot blot; recombinant Mtb proteins separated by SDS-PAGE (12%) and transferred to nitrocellulose; incubated with recombinant human IL-8 at 5 ug/ml, 2 h, room temperature; bound IL-8 detected with anti-human IL-8 goat polyclonal IgG; both purified
T1 sequence: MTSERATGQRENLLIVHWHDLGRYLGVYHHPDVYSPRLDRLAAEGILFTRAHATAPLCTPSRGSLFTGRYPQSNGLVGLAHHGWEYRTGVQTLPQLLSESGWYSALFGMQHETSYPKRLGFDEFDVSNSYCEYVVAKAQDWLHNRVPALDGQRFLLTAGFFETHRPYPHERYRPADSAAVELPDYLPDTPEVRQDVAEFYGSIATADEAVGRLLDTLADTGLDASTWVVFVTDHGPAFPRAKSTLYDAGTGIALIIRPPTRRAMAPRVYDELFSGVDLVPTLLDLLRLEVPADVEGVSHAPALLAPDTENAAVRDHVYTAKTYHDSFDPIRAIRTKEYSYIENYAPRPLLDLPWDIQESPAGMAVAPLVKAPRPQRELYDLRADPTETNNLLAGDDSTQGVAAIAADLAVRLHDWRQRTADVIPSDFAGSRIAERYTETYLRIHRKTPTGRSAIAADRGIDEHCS

[2] = molecular target: T2, recombinant M. tuberculosis rSerA (His-tagged, from pHis-serA) (Mycobacterium tuberculosis H37Rv) (UniProt P9WNX3); test: as above
T2 sequence: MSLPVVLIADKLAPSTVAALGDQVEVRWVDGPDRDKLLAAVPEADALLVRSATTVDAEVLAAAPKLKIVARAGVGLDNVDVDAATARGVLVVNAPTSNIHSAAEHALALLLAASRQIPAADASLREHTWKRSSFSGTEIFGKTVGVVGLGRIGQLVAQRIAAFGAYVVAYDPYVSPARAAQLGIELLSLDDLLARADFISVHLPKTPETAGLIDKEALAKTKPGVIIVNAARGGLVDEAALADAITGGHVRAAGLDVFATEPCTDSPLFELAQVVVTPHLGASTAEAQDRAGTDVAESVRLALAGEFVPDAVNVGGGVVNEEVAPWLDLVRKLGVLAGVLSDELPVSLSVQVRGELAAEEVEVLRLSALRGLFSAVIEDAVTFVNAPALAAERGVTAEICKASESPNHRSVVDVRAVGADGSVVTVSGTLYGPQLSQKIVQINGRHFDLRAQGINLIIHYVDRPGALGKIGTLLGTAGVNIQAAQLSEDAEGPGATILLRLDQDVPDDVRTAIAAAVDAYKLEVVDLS

In the case of “recombinant human IL-8 (interleukin-8) (ligand)”, the binding [1] is reported as “binds” and the binding [2] is reported as “no binding (tested: 5 μg/ml)”.
